According to publication PMC7819943, “Rice protein-binding microarrays: a tool to detect cis-acting elements near promoter regions in rice”:
This is one part of the list.

Target: T1, OsSMF1 (Oryza sativa, UniProt Q6ZLB0 1-436)
T1 sequence: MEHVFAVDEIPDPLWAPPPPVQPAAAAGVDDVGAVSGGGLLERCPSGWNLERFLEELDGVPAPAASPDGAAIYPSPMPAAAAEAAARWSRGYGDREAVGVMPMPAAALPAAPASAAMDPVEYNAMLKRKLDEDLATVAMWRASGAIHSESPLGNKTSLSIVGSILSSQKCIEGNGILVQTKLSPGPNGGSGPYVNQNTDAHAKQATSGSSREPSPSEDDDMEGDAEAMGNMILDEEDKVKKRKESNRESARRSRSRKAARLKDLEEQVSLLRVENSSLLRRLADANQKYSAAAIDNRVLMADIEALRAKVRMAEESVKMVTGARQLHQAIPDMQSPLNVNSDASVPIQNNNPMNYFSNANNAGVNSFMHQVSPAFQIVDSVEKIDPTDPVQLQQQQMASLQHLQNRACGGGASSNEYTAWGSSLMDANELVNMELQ
Test: protein-binding microarray (RPBM); PBS, 2% BSA, 51.3 ng/ul salmon testes DNA, 50 uM zinc acetate, 200 nM TF, 25 C, 1 h; high values mean tight binding
Settings: protein: recombinant; tags: N-terminal polyhistidine and DsRed monomer fusion (pET32a); chain copies: 2; label: CyDye5-dUTP incorporated in the synthesized complementary strand; 3' TTTTT single-stranded linker to array surface; dsDNA, one strand shown
Procedure, shortened: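 Transcription factors were made in E. coli BL21-CodonPlus as N-terminal fusions to a polyhistidine tag and DsRed, then purified on Ni–NTA. After primer extension with Cy5-dUTP and blocking with 2% BSA, a custom Agilent array was exposed for 1 h at 25 °C to 200 nM protein in PBS, 2% BSA, salmon testes DNA and 50 µM zinc acetate. Washed arrays were scanned on an Axon 4000B, and the binding signal is per-feature fluorescence intensity in arbitrary units.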

| Sequence | binding signal |
| --- | --- |
| CCTGACGCCGCGGTAGCTCAGGCAAGCGGCCTCAACCTGGCGGAGTCACCTAGTGCAG | 36800 fluorescence intensity (a.u.) |
| AAGGCTCGTATGACTCATCCTGGATGAGGCTAGCCTGGATCGGAGTCACCTAGTGCAG | 6540 fluorescence intensity (a.u.) |
| TGGCGATCGTAAGGTACAGTCTACAGACCAGTTGGGGTATCGGAGTCACCTAGTGCAG | 3170 fluorescence intensity (a.u.) |
| CCGCAAGTCGTGGAAGCAGCGCACGGACATGTACATGCGGCGGAGTCACCTAGTGCAG | 4440 fluorescence intensity (a.u.) |
| CCGTTTAGTTACACCGTCACTCGCAAATCCGATGGCGTGTCGGAGTCACCTAGTGCAG | 5260 fluorescence intensity (a.u.) |
| CTCTGACGTAAGATATATGTAACTCAGGAGAGACATCCTACGGAGTCACCTAGTGCAG | 25900 fluorescence intensity (a.u.) |
| AGCCCGCGCCGGAGATCTTCGAGCTCTTCGACGACGTCATCGGAGTCACCTAGTGCAG | 4930 fluorescence intensity (a.u.) |
| CGCAAGGGAGAATAGGGGTGTTGAGAGGAGGGGCGACAGGCGGAGTCACCTAGTGCAG | 3150 fluorescence intensity (a.u.) |
| TGCCATTCGGGTTATTGGGCCGTTTGCGAAATTTGTGAAGCGGAGTCACCTAGTGCAG | 28000 fluorescence intensity (a.u.) |
| GCCTCTCAATCTGCACGTCCACATCGGTTCTCGGTGCCCGCGGAGTCACCTAGTGCAG | 5420 fluorescence intensity (a.u.) |
| AAAAGAATGGTGCACTAGTATACGTGGCTACTCCACAGTGCGGAGTCACCTAGTGCAG | 5920 fluorescence intensity (a.u.) |
| GACTGCAGTAGTGGCGATTACGTCCACGTCACTGCACGCTCGGAGTCACCTAGTGCAG | 17300 fluorescence intensity (a.u.) |
| TATATGAGGTGGAAGGATAGGTTTATTTATCATTAATCCTCGGAGTCACCTAGTGCAG | 3880 fluorescence intensity (a.u.) |
| CCCGCAGCTCAACCTGGCTCGCACCGCCATCCCCACGACCCGGAGTCACCTAGTGCAG | 31400 fluorescence intensity (a.u.) |
| ATTTCCATGCTTTACGTGGATCTAATTAGATTGCTACCACCGGAGTCACCTAGTGCAG | 5540 fluorescence intensity (a.u.) |
| CCCACCGAGGCGCCGTCGCTGCCCTGTCCCACCTCACCCCCGGAGTCACCTAGTGCAG | 3160 fluorescence intensity (a.u.) |
| CGTCGATTAATTTCCCTGGTAAATACGAAATGTTCATGGTCGGAGTCACCTAGTGCAG | 39600 fluorescence intensity (a.u.) |
| ATGCATCTAAGCATATTAGCTATATACCACATCATTTTCACGGAGTCACCTAGTGCAG | 4780 fluorescence intensity (a.u.) |
| CACCGCCCCATCGATCTCCGCCCGGCCGCCACCAATCTCGCGGAGTCACCTAGTGCAG | 3310 fluorescence intensity (a.u.) |
| GCGCGTTGACGTAACCACCTCGTCCTCATCATCATCCTCTCGGAGTCACCTAGTGCAG | 6020 fluorescence intensity (a.u.) |
| CTTACTAACACTGATGTGTCATGCTACGAGTGCATCTAGGCGGAGTCACCTAGTGCAG | 5070 fluorescence intensity (a.u.) |

| Sequence | binding signal |
| --- | --- |
| TGGAGAGGGAAGGAGAGAGGAAGAGAGGTGGAGAGGGGAGCGGAGTCACCTAGTGCAG | 4030 fluorescence intensity (a.u.) |
| CTATCCTGGATCCATCGATGGATCATCATCAGACAGCATGCGGAGTCACCTAGTGCAG | 3370 fluorescence intensity (a.u.) |
| TATTGTGATGTCTTATTGACATGGCACCATGGACACTACTCGGAGTCACCTAGTGCAG | 3900 fluorescence intensity (a.u.) |
| TGGCCAAGGCCCACATAGCAACGCATATGCATCATTCATGCGGAGTCACCTAGTGCAG | 3220 fluorescence intensity (a.u.) |
| CTACTCTGTTGTCAACTACGTGTCAGCACTTCAAATCGCCCGGAGTCACCTAGTGCAG | 10500 fluorescence intensity (a.u.) |
| TGATTGTAACTGGATGACATGGACTATGTTTTGATGAATTCGGAGTCACCTAGTGCAG | 4690 fluorescence intensity (a.u.) |
| CAGCGCGGCGCGTGCCACGCAATCTCGACCACTGTCTACGCGGAGTCACCTAGTGCAG | 6670 fluorescence intensity (a.u.) |
| TTATTTAAAGGAGGCGGGGTAGGAGGGAGAGGGAGATAGGCGGAGTCACCTAGTGCAG | 32400 fluorescence intensity (a.u.) |
| CCAACATTGACCAGTCGGCACTCACACCACTATATCCCTTCGGAGTCACCTAGTGCAG | 3930 fluorescence intensity (a.u.) |
| ATCACCATCCACTAACAAGATGTCACATCATCATCCACTACGGAGTCACCTAGTGCAG | 3650 fluorescence intensity (a.u.) |
| TTCATCGGTGACCAGAAAATCATCATGCAGTCTCTAAGGTCGGAGTCACCTAGTGCAG | 3250 fluorescence intensity (a.u.) |
| CCCGGTGGATGACGACCTGCTCCCAGTCCTCGTGGAGGTACGGAGTCACCTAGTGCAG | 3240 fluorescence intensity (a.u.) |
| GACCACGACCCACGTCACCTACCCCGGCAAGACCAGAGCGCGGAGTCACCTAGTGCAG | 14000 fluorescence intensity (a.u.) |
| ACGTGTGTTAAGGGTGTGTGTAGTATATGCACGTGATGTACGGAGTCACCTAGTGCAG | 3320 fluorescence intensity (a.u.) |
| GTCGCGCCGACTCACTCTCGCCGCCGCCGCCGCCGCCGCCCGGAGTCACCTAGTGCAG | 3330 fluorescence intensity (a.u.) |
| AGAAATTAAACTCTAACTAGTATACGTATATTCACAGTCACGGAGTCACCTAGTGCAG | 3270 fluorescence intensity (a.u.) |
| AAAAGTGTGATCCATCCACGTGGTGTTTTGAGCCACTGCACGGAGTCACCTAGTGCAG | 7230 fluorescence intensity (a.u.) |
| ATCTATATACTTTACTTCATGATCTGGCAACTGATCAGGTCGGAGTCACCTAGTGCAG | 5410 fluorescence intensity (a.u.) |
| GAACGGTCAAATAGCCGTTAGTGCCACGTGGCGCCTTCCCCGGAGTCACCTAGTGCAG | 25100 fluorescence intensity (a.u.) |
| CTCTCCTCGGGTTCGACTCTCCACCGCTGTCACTCACTCTCGGAGTCACCTAGTGCAG | 4340 fluorescence intensity (a.u.) |
| AAAGCCGCTATTCCTGTGAGGCCCTGACGCCGACCGAAACCGGAGTCACCTAGTGCAG | 3270 fluorescence intensity (a.u.) |

Two records picked at random from those above:

| Sequence | binding signal |
| --- | --- |
| AAAGCCGCTATTCCTGTGAGGCCCTGACGCCGACCGAAACCGGAGTCACCTAGTGCAG | 3270 fluorescence intensity (a.u.) |
| CCCGGTGGATGACGACCTGCTCCCAGTCCTCGTGGAGGTACGGAGTCACCTAGTGCAG | 3240 fluorescence intensity (a.u.) |
